{"source": "PubChem BioAssay AID1224828 (NIAID, 2016)", "aim": "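Find genes required for NF-kappaB p65 moving into the nucleus after LPS in mouse macrophages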 (primary screen)", "cells": "mouse RAW264.7 G9 macrophage reporter cells (GFP-p65, Tnf promoter-mCherry)", "reagent": "siRNA pool against mouse genes, 100 nM", "duration": "2 days siRNA transfection, then 40 min LPS before fixation", "treatment": "LPS (Salmonella minnesota R595) at 10 ng/ml", "measured": "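Microscopy ratio of nuclear to perinuclear-ring GFP-p65 signal, scaled to the plate median; gene score is the average of two replicate robust z-scores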", "reading the numbers": "p65 translocation robust z-score: higher = more nuclear NF-kappaB p65 after LPS than the plate median; nuclear/cytoplasmic p65 ratio: higher = more nuclear NF-kappaB p65", "call rule": "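Called active when z exceeds 3.3 or falls under -1.56 (median of Tlr4 controls), giving activity score of at least 50; no calls for control wells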", "calls": "active = hit (p65 shift raised or lowered); inactive = no clear change", "note": "Here is an unselected part of about 17,000 reagents tested. In the full data, 762 (4.5%) got an active call. 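Active calls include both raised and lowered p65 entry, mostly lowered; wells with fewer than 50 cells lack a z-score.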 The raw values are shown without normalisation. No sequences are given here."}
{"target": "Gdpd3 (glycerophosphodiester phosphodiesterase domain containing 3)", "p65 translocation robust z-score": 0.16, "nuclear/cytoplasmic p65 ratio, rep 1": 1.52, "nuclear/cytoplasmic p65 ratio, rep 2": 1.53, "low cell count flag": "enough cells to score", "Call": "inactive"}
{"target": "Arrdc1 (arrestin domain containing 1)", "p65 translocation robust z-score": 0.22, "nuclear/cytoplasmic p65 ratio, rep 1": 1.53, "nuclear/cytoplasmic p65 ratio, rep 2": 1.65, "low cell count flag": "enough cells to score", "Call": "inactive"}
{"target": "Gpr19 (G protein-coupled receptor 19)", "p65 translocation robust z-score": -0.04, "nuclear/cytoplasmic p65 ratio, rep 1": 1.46, "nuclear/cytoplasmic p65 ratio, rep 2": 1.61, "low cell count flag": "enough cells to score", "Call": "inactive"}
{"target": "Dusp9 (dual specificity phosphatase 9)", "p65 translocation robust z-score": -0.72, "nuclear/cytoplasmic p65 ratio, rep 1": 1.44, "nuclear/cytoplasmic p65 ratio, rep 2": 1.23, "low cell count flag": "enough cells to score", "Call": "inactive"}
{"target": "H2bc1 (H2B clustered histone 1)", "nuclear/cytoplasmic p65 ratio, rep 1": 1.63, "nuclear/cytoplasmic p65 ratio, rep 2": 1.51, "low cell count flag": "fewer than 50 cells per well; well left out of scoring", "Call": "inactive"}
{"target": "Csk (c-src tyrosine kinase)", "p65 translocation robust z-score": 1.17, "nuclear/cytoplasmic p65 ratio, rep 1": 1.55, "nuclear/cytoplasmic p65 ratio, rep 2": 1.53, "low cell count flag": "enough cells to score", "Call": "inactive"}
{"target": "Grsf1 (G-rich RNA sequence binding factor 1)", "p65 translocation robust z-score": 0.21, "nuclear/cytoplasmic p65 ratio, rep 1": 1.45, "nuclear/cytoplasmic p65 ratio, rep 2": 1.41, "low cell count flag": "enough cells to score", "Call": "inactive"}
{"target": "Rnf126 (ring finger protein 126)", "p65 translocation robust z-score": -2.13, "nuclear/cytoplasmic p65 ratio, rep 1": 1.09, "nuclear/cytoplasmic p65 ratio, rep 2": 1.01, "low cell count flag": "enough cells to score", "Call": "active"}
{"target": "Tnni3 (troponin I, cardiac 3)", "p65 translocation robust z-score": -0.76, "nuclear/cytoplasmic p65 ratio, rep 1": 1.48, "nuclear/cytoplasmic p65 ratio, rep 2": 1.35, "low cell count flag": "enough cells to score", "Call": "inactive"}
{"target": "Myf6 (myogenic factor 6)", "p65 translocation robust z-score": 0.35, "nuclear/cytoplasmic p65 ratio, rep 1": 1.46, "nuclear/cytoplasmic p65 ratio, rep 2": 1.41, "low cell count flag": "enough cells to score", "Call": "inactive"}
{"target": "9930111J21Rik2 (RIKEN cDNA 9930111J21 gene 2)", "p65 translocation robust z-score": 1.49, "nuclear/cytoplasmic p65 ratio, rep 1": 1.64, "nuclear/cytoplasmic p65 ratio, rep 2": 1.74, "low cell count flag": "enough cells to score", "Call": "inactive"}
{"target": "Ptpre (protein tyrosine phosphatase receptor type E)", "p65 translocation robust z-score": 5.75, "nuclear/cytoplasmic p65 ratio, rep 1": 1.52, "nuclear/cytoplasmic p65 ratio, rep 2": 3.09, "low cell count flag": "enough cells to score", "Call": "active"}
{"target": "Ampd2 (adenosine monophosphate deaminase 2)", "p65 translocation robust z-score": 0.31, "nuclear/cytoplasmic p65 ratio, rep 1": 1.57, "nuclear/cytoplasmic p65 ratio, rep 2": 1.81, "low cell count flag": "enough cells to score", "Call": "inactive"}
{"target": "Lims2 (LIM and senescent cell antigen like domains 2)", "p65 translocation robust z-score": 1.29, "nuclear/cytoplasmic p65 ratio, rep 1": 1.94, "nuclear/cytoplasmic p65 ratio, rep 2": 1.72, "low cell count flag": "enough cells to score", "Call": "inactive"}
{"target": "1700001O22Rik (RIKEN cDNA 1700001O22 gene)", "p65 translocation robust z-score": 0.96, "nuclear/cytoplasmic p65 ratio, rep 1": 1.49, "nuclear/cytoplasmic p65 ratio, rep 2": 1.58, "low cell count flag": "enough cells to score", "Call": "inactive"}
{"target": "Clstn2 (calsyntenin 2)", "p65 translocation robust z-score": 0.71, "nuclear/cytoplasmic p65 ratio, rep 1": 1.58, "nuclear/cytoplasmic p65 ratio, rep 2": 1.45, "low cell count flag": "enough cells to score", "Call": "inactive"}
{"target": "Cers1 (ceramide synthase 1)", "p65 translocation robust z-score": -1.96, "nuclear/cytoplasmic p65 ratio, rep 1": 1.2, "nuclear/cytoplasmic p65 ratio, rep 2": 1.23, "low cell count flag": "enough cells to score", "Call": "active"}
{"target": "Ntng2 (netrin G2)", "p65 translocation robust z-score": 0.19, "nuclear/cytoplasmic p65 ratio, rep 1": 1.77, "nuclear/cytoplasmic p65 ratio, rep 2": 1.54, "low cell count flag": "enough cells to score", "Call": "inactive"}
{"target": "Nox1 (NADPH oxidase 1)", "p65 translocation robust z-score": 4.62, "nuclear/cytoplasmic p65 ratio, rep 1": 2.34, "nuclear/cytoplasmic p65 ratio, rep 2": 2.27, "low cell count flag": "enough cells to score", "Call": "active"}
{"target": "Dtx2 (deltex 2, E3 ubiquitin ligase)", "p65 translocation robust z-score": -1.2, "nuclear/cytoplasmic p65 ratio, rep 1": 1.32, "nuclear/cytoplasmic p65 ratio, rep 2": 1.22, "low cell count flag": "enough cells to score", "Call": "inactive"}
{"target": "Slc25a10", "p65 translocation robust z-score": -0.59, "nuclear/cytoplasmic p65 ratio, rep 1": 1.33, "nuclear/cytoplasmic p65 ratio, rep 2": 1.18, "low cell count flag": "enough cells to score", "Call": "inactive"}
{"target": "Gm38410 (predicted gene, 38410)", "p65 translocation robust z-score": 0.44, "nuclear/cytoplasmic p65 ratio, rep 1": 1.55, "nuclear/cytoplasmic p65 ratio, rep 2": 1.54, "low cell count flag": "enough cells to score", "Call": "inactive"}
{"target": "Tnni2 (troponin I, skeletal, fast 2)", "p65 translocation robust z-score": -0.88, "nuclear/cytoplasmic p65 ratio, rep 1": 1.43, "nuclear/cytoplasmic p65 ratio, rep 2": 1.36, "low cell count flag": "enough cells to score", "Call": "inactive"}
{"target": "Fam43a (family with sequence similarity 43, member A)", "p65 translocation robust z-score": 0.9, "nuclear/cytoplasmic p65 ratio, rep 1": 1.73, "nuclear/cytoplasmic p65 ratio, rep 2": 1.97, "low cell count flag": "enough cells to score", "Call": "inactive"}
{"target": "Trh (thyrotropin releasing hormone)", "p65 translocation robust z-score": -0.93, "nuclear/cytoplasmic p65 ratio, rep 1": 1.4, "nuclear/cytoplasmic p65 ratio, rep 2": 1.36, "low cell count flag": "enough cells to score", "Call": "inactive"}
{"target": "Dusp6 (dual specificity phosphatase 6)", "p65 translocation robust z-score": 1.19, "nuclear/cytoplasmic p65 ratio, rep 1": 1.82, "nuclear/cytoplasmic p65 ratio, rep 2": 1.58, "low cell count flag": "enough cells to score", "Call": "inactive"}
{"target": "Or12e8 (olfactory receptor family 12 subfamily E member 8)", "p65 translocation robust z-score": 1.07, "nuclear/cytoplasmic p65 ratio, rep 1": 1.9, "nuclear/cytoplasmic p65 ratio, rep 2": 1.67, "low cell count flag": "enough cells to score", "Call": "inactive"}

2 of these entries, reformatted:
Cers1 (ceramide synthase 1) | p65 translocation robust z-score = -1.96; nuclear/cytoplasmic p65 ratio, rep 1 = 1.2; nuclear/cytoplasmic p65 ratio, rep 2 = 1.23; low cell count flag = enough cells to score; Call = active
Ntng2 (netrin G2) | p65 translocation robust z-score = 0.19; nuclear/cytoplasmic p65 ratio, rep 1 = 1.77; nuclear/cytoplasmic p65 ratio, rep 2 = 1.54; low cell count flag = enough cells to score; Call = inactive
